Laboratory results as given in article PMC5318303.

Chains of the proteins cited; added tags and fusions are not shown. Lines headed by an entry give the natural chain unless they say otherwise; changes in a name come on top.
UniProt Q10NC1: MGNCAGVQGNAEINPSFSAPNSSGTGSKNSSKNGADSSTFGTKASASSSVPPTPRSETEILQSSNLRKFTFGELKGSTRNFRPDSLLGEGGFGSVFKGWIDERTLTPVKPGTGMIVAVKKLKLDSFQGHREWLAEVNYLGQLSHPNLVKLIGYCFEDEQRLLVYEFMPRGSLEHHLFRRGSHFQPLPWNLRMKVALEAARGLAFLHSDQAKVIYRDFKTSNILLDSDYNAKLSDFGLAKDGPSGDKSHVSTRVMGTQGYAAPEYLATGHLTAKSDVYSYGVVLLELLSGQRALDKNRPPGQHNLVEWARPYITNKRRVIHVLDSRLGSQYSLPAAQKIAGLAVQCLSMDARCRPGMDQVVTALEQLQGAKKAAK

B1: OsCERK1-YC (receptor, UniProt A0A0P0XII1 19-624)
chain: AGTVTEAAGDGCSAGCDLALASFYVTPNQNVTNMADLFGIGAANYRSLAPYNPNIPNLDFINVGGRVNVYFTCGCRSLPGSPGATYLAGAFPFQMSRGQIYTSVAANYNNLTTAEWLQATNSYPANNIPDTAVINATVNCSCGDASISPDYGLFLTYPLRAEDTLASVAATYGLSSQLDVVRRYNPGMESATGSGIVYIPVKDPNGSYLPLKSPGKGASAGAIAGGVVAGVVVLAAIFLYIIFYRRRKAKQATLLQSSEDSTQLGTISMDKVTPSTIVGPSPVAGITVDKSVEFSYEELSNATQGFSIGNKIGQGGFGAVYYAELRGEKAAIKKMDMQATHEFLAELKVLTHVHHLNLVRLIGYCIESSLFLVYEFIENGNLSQHLRGMGYEPLSWAARIQIALDSARGLEYIHEHTVPVYIHRDIKSANILIDKNYRAKVADFGLTKLTEVGGTSMPTGTRVVGTFGYMPPEYARYGDVSPKVDVYAFGVVLYELISAKEAIVRSTESSSDSKGLVYLFEEALNSPDPKEGLRTLIDPKLGEDYPIDSILKLTQLAKVCTQEDPKLRPSMRSVVVALMTLSSTSEFWDMNNLYENQGLVNLMSGR
B2: OsCERK1 (receptor, UniProt A0A0P0XII1 19-624)
chain: B1 chain

Columns and labels:
OsRLCK107-YN (rice) = OsRLCK107-YN (rice) (UniProt Q10NC1); assay: split reporter; BiFC: OsRLCKs-YN and OsCERK1-YC co-expressed in rice protoplasts; reconstituted YFP fluorescence seen by confocal microscope
[1] = biological target: OsRLCK107 with a C-terminal 3 × FLAG epitope tag (rice); assay: co-IP; protoplasts expressing OsRLCK107-3xFLAG treated with 150 μg/mL chitin, PGN or sterile water (mock) for 10 min; immunoprecipitation with anti-FLAG GEL (Sigma); OsCERK1 detected by OsCERK1 antibody; WT protoplasts as negative control

Binder	binding (OsRLCK107-YN (rice))	binding [1]
B1	binds	
B2		binds

Results are given in words; binding and its absence hold for the method and conditions named. Binding seen in cells or lysates may run through a third protein. Binding can be weak; no strength is given.
